PubChem BioAssay AID1259308 – NCATS, 2017

- Aim: 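Candidate targets for better recombinant protein yield in mammalian cells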 (primary screen)
- Cells: human HEK293 embryonic kidney cells stably expressing firefly luciferase (HEK-CMV-Luc2-Hygro)
- Knock-down reagent: single siRNA against human genes, 0.8 pmol siRNA per well
- Duration: 72 h
- Measured: 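Luciferase light (ONE-Glo) measured on one replicate plate set and viability (CellTiter-Glo) on the other, scaled to a negative control siRNA, with robust z-scores and luciferase per cell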
- Direction: total luciferase, z-score: higher = more reporter protein produced
- Call rule: 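Active when the median/MAD z-score for overall luciferase is greater than 3; a gene was taken forward for validation with new siRNAs if at least two of its three siRNAs passed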
- Meaning of the calls: active = raised luciferase; inactive = no rise
The whole screen tested about 59,000 reagents; shown is a random part of them. Of all reagents, about 1,510 (2.6%) were called active. 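Calls use total luciferase alone and ignore viability, so some active siRNAs may act by altering cell number.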 Unmarked entries are inactive. Reagents against one gene are numbered here. Further read-outs or replicates are left out here. No sequences are given here.

Against FLRT3 (fibronectin leucine rich transmembrane protein 3) #1, the entry reads total luciferase, z-score 1.02. Silencing of FLRT3 (fibronectin leucine rich transmembrane protein 3) #2 resulted in: total luciferase, z-score 0.592. With knock-down of FLRT3 (fibronectin leucine rich transmembrane protein 3) #3, the screen gave total luciferase, z-score 0.125. RARB (retinoic acid receptor beta) #1 gave total luciferase, z-score 0.204. Depletion of RARB (retinoic acid receptor beta) #2 gave: total luciferase, z-score 0.0649. RARB (retinoic acid receptor beta) #3 gave total luciferase, z-score -1.06.

Depletion of SLIT3-AS1 (SLIT3 antisense RNA 1) #1 resulted in: total luciferase, z-score -0.763. SLIT3-AS1 (SLIT3 antisense RNA 1) #2 gave total luciferase, z-score -0.103. Silencing of SLIT3-AS1 (SLIT3 antisense RNA 1) #3 resulted in: total luciferase, z-score -0.0235. For COL19A1 (collagen type XIX alpha 1 chain) #1 the deposit lists total luciferase, z-score -1.11. For COL19A1 (collagen type XIX alpha 1 chain) #2 the deposit lists total luciferase, z-score 1.37. After knock-down of COL19A1 (collagen type XIX alpha 1 chain) #3 the results were total luciferase, z-score -0.554.

For RDH14 (retinol dehydrogenase 14) #1, the entry reads total luciferase, z-score 3.41 (active). Depletion of RDH14 (retinol dehydrogenase 14) #2 came out at: total luciferase, z-score -0.965. Silencing of RDH14 (retinol dehydrogenase 14) #3 gave: total luciferase, z-score -0.412. Knock-down of RAB32 (RAB32, member RAS oncogene family) #1 came out at: total luciferase, z-score -1.77. Depletion of RAB32 (RAB32, member RAS oncogene family) #2 came out at: total luciferase, z-score -0.911. Knock-down of RAB32 (RAB32, member RAS oncogene family) #3 gave: total luciferase, z-score -1.54.

Records above whose gene name starts with S or s:
SLIT3-AS1 (SLIT3 antisense RNA 1) #1 → total luciferase, z-score = -0.763
SLIT3-AS1 (SLIT3 antisense RNA 1) #2 → total luciferase, z-score = -0.103
SLIT3-AS1 (SLIT3 antisense RNA 1) #3 → total luciferase, z-score = -0.0235

More reagents follow.
Against DENND3 (DENN domain containing 3) #1, the values are total luciferase, z-score 1.07. DENND3 (DENN domain containing 3) #2 scored total luciferase, z-score -1.14. After knock-down of DENND3 (DENN domain containing 3) #3, the screen gave total luciferase, z-score 0.741. Silencing of COX17 (cytochrome c oxidase copper chaperone COX17) #1 came out at: total luciferase, z-score -0.785. Silencing of COX17 (cytochrome c oxidase copper chaperone COX17) #2 resulted in: total luciferase, z-score -1.03. Knock-down of COX17 (cytochrome c oxidase copper chaperone COX17) #3 gave: total luciferase, z-score -0.322.

Depletion of BTBD10 (BTB domain containing 10) #1 gave: total luciferase, z-score -0.319. After knock-down of BTBD10 (BTB domain containing 10) #2 the results were total luciferase, z-score -0.604. After knock-down of BTBD10 (BTB domain containing 10) #3, the record shows total luciferase, z-score -0.487. After knock-down of GAPDHS (glyceraldehyde-3-phosphate dehydrogenase, spermatogenic) #1, the record shows total luciferase, z-score -0.732. With knock-down of GAPDHS (glyceraldehyde-3-phosphate dehydrogenase, spermatogenic) #2, the record shows total luciferase, z-score -0.635. With knock-down of GAPDHS (glyceraldehyde-3-phosphate dehydrogenase, spermatogenic) #3 the results were total luciferase, z-score -0.145.

After knock-down of EIF3A (eukaryotic translation initiation factor 3 subunit A) #1, the record shows total luciferase, z-score -1.83. Knock-down of EIF3A (eukaryotic translation initiation factor 3 subunit A) #2 gave: total luciferase, z-score -1.9. Silencing of EIF3A (eukaryotic translation initiation factor 3 subunit A) #3 resulted in: total luciferase, z-score -2.29.
